Results deposited as PubChem BioAssay AID1259254 (NCATS, 2017)
In all, the deposit lists about 59,000 reagents; shown is a random part of them. In the full data, about 1,550 (2.6%) were called active. 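G2 share is only a proxy for re-replication; each gene was hit by three separate siRNAs, and active genes were retested.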 Reagents against one gene are numbered here. Further read-outs or replicates are left out here. Reagent sequences are not shown. Not stated in the record: the amount of reagent.

- Assay: 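Gene knock-downs that lead to re-replication, shown by excess G2 DNA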 (primary screen)
- System: human HCT116 colorectal cancer cells
- Reagent: single siRNA against human genes
- Timing: 3 days
- Measurement: 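Nuclei stained with Hoechst and imaged; cell-cycle phase assigned by DNA content; G2 share scaled per plate, non-targeting siRNA 0%, GMNN siRNA 100%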
- Reading the numbers: G2 robust z-score: higher = more G2 cells, more excess DNA replication
- Call rule: 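An siRNA counts as active if its G2 robust z-score lies at least 5 MADs above the screen median; here such calls match roughly 38% of GMNN control or more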

| gene | reagent | G2 robust z-score | outcome |
| --- | --- | --- | --- |
| ZSWIM3 (zinc finger SWIM-type containing 3) | 1 | -0.196 | inactive |
| ZSWIM3 (zinc finger SWIM-type containing 3) | 2 | 0.335 | inactive |
| ZSWIM3 (zinc finger SWIM-type containing 3) | 3 | -0.646 | inactive |
| KLHL15 (kelch like family member 15) | 1 | 0.777 | inactive |
| KLHL15 (kelch like family member 15) | 2 | 0.232 | inactive |
| KLHL15 (kelch like family member 15) | 3 | 1.42 | inactive |
| RNASE10 (ribonuclease A family member 10 (inactive)) | 1 | 3.54 | inactive |
| RNASE10 (ribonuclease A family member 10 (inactive)) | 2 | 0.953 | inactive |
| RNASE10 (ribonuclease A family member 10 (inactive)) | 3 | -1.12 | inactive |
| RHOQ (ras homolog family member Q) | 1 | -0.435 | inactive |
| RHOQ (ras homolog family member Q) | 2 | 0.134 | inactive |
| RHOQ (ras homolog family member Q) | 3 | -1.24 | inactive |
| SHFL (shiftless antiviral inhibitor of ribosomal frameshifting) | 1 | -0.662 | inactive |
| SHFL (shiftless antiviral inhibitor of ribosomal frameshifting) | 2 | 1.18 | inactive |
| SHFL (shiftless antiviral inhibitor of ribosomal frameshifting) | 3 | 2.53 | inactive |
| RPS4X (ribosomal protein S4 X-linked) | 1 | 3.74 | inactive |
| RPS4X (ribosomal protein S4 X-linked) | 2 | 3.58 | inactive |
| RPS4X (ribosomal protein S4 X-linked) | 3 | 0.487 | inactive |
| SFTPD (surfactant protein D) | 1 | 0.446 | inactive |
| SFTPD (surfactant protein D) | 2 | -1.1 | inactive |
| SFTPD (surfactant protein D) | 3 | 0.752 | inactive |
| GSR (glutathione-disulfide reductase) | 1 | -0.177 | inactive |
| GSR (glutathione-disulfide reductase) | 2 | 0.57 | inactive |
| GSR (glutathione-disulfide reductase) | 3 | 0.336 | inactive |
| ARID5A (AT-rich interaction domain 5A) | 1 | -0.295 | inactive |
| ARID5A (AT-rich interaction domain 5A) | 2 | -0.0452 | inactive |
| ARID5A (AT-rich interaction domain 5A) | 3 | -0.239 | inactive |
| SPMIP4 (sperm microtubule inner protein 4) | 1 | -0.508 | inactive |
| SPMIP4 (sperm microtubule inner protein 4) | 2 | -0.401 | inactive |
| SPMIP4 (sperm microtubule inner protein 4) | 3 | 0.163 | inactive |
| BMS1P9 (BMS1 pseudogene 9) | 1 | -0.468 | inactive |
| BMS1P9 (BMS1 pseudogene 9) | 2 | 6.11 | active |
| BMS1P9 (BMS1 pseudogene 9) | 3 | 1.85 | inactive |
| CNP (2',3'-cyclic nucleotide 3' phosphodiesterase) | 1 | 2.68 | inactive |
| CNP (2',3'-cyclic nucleotide 3' phosphodiesterase) | 2 | -1.02 | inactive |
| CNP (2',3'-cyclic nucleotide 3' phosphodiesterase) | 3 | -0.447 | inactive |
| FBLN1 (fibulin 1) | 1 | 0.28 | inactive |
| FBLN1 (fibulin 1) | 2 | -0.331 | inactive |
| FBLN1 (fibulin 1) | 3 | 5.82 | active |
| ISL1 (ISL LIM homeobox 1) | 1 | -1.47 | inactive |
| ISL1 (ISL LIM homeobox 1) | 2 | 4.06 | inactive |
| ISL1 (ISL LIM homeobox 1) | 3 | -0.748 | inactive |
| IMPG2 (interphotoreceptor matrix proteoglycan 2) | 1 | -0.869 | inactive |
| IMPG2 (interphotoreceptor matrix proteoglycan 2) | 2 | -0.57 | inactive |
| IMPG2 (interphotoreceptor matrix proteoglycan 2) | 3 | -0.981 | inactive |
| RPL38 (ribosomal protein L38) | 1 | 3.08 | inactive |
| RPL38 (ribosomal protein L38) | 2 | 5.22 | active |
| RPL38 (ribosomal protein L38) | 3 | 1.7 | inactive |

Targets above whose target name starts with F or f (3):
| gene | reagent | G2 robust z-score | outcome |
| --- | --- | --- | --- |
| FBLN1 (fibulin 1) | 1 | 0.28 | inactive |
| FBLN1 (fibulin 1) | 2 | -0.331 | inactive |
| FBLN1 (fibulin 1) | 3 | 5.82 | active |
